# Results taken from PMC12690290.
# Amino acid sequences for entries named in this document (tags omitted). A change or cut given only in a name is not applied to a line headed by its entry. Residues count along the entry.
# UniProt P02787, residues 20-698: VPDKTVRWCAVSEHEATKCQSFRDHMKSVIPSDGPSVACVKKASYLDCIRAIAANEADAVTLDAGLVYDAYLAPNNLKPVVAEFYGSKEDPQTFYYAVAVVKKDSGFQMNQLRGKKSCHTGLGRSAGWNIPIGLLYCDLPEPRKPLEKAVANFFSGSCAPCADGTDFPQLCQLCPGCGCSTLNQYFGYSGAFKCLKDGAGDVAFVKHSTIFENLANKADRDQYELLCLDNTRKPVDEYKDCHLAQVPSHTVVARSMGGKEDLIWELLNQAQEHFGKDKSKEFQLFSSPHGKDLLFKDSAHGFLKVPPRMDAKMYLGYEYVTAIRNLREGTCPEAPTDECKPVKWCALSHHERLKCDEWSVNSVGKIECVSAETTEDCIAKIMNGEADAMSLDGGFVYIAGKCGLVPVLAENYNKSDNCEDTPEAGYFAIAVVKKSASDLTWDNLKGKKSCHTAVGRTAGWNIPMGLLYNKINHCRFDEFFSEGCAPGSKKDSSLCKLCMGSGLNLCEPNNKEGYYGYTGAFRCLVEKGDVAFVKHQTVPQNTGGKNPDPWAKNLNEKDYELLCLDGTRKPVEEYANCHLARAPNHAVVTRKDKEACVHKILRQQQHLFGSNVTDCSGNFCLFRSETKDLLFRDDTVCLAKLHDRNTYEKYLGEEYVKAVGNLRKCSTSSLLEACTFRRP
# UniProt Q7L5N1: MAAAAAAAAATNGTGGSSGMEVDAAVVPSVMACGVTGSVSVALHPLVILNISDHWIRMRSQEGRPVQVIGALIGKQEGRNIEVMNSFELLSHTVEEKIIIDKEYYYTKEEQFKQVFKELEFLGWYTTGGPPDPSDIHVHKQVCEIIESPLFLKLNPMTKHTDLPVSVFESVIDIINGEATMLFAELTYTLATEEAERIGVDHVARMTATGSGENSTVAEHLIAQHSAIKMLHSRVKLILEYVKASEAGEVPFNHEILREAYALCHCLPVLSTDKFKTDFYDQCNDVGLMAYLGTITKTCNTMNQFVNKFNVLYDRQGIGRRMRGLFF
# UniProt Q96Q89: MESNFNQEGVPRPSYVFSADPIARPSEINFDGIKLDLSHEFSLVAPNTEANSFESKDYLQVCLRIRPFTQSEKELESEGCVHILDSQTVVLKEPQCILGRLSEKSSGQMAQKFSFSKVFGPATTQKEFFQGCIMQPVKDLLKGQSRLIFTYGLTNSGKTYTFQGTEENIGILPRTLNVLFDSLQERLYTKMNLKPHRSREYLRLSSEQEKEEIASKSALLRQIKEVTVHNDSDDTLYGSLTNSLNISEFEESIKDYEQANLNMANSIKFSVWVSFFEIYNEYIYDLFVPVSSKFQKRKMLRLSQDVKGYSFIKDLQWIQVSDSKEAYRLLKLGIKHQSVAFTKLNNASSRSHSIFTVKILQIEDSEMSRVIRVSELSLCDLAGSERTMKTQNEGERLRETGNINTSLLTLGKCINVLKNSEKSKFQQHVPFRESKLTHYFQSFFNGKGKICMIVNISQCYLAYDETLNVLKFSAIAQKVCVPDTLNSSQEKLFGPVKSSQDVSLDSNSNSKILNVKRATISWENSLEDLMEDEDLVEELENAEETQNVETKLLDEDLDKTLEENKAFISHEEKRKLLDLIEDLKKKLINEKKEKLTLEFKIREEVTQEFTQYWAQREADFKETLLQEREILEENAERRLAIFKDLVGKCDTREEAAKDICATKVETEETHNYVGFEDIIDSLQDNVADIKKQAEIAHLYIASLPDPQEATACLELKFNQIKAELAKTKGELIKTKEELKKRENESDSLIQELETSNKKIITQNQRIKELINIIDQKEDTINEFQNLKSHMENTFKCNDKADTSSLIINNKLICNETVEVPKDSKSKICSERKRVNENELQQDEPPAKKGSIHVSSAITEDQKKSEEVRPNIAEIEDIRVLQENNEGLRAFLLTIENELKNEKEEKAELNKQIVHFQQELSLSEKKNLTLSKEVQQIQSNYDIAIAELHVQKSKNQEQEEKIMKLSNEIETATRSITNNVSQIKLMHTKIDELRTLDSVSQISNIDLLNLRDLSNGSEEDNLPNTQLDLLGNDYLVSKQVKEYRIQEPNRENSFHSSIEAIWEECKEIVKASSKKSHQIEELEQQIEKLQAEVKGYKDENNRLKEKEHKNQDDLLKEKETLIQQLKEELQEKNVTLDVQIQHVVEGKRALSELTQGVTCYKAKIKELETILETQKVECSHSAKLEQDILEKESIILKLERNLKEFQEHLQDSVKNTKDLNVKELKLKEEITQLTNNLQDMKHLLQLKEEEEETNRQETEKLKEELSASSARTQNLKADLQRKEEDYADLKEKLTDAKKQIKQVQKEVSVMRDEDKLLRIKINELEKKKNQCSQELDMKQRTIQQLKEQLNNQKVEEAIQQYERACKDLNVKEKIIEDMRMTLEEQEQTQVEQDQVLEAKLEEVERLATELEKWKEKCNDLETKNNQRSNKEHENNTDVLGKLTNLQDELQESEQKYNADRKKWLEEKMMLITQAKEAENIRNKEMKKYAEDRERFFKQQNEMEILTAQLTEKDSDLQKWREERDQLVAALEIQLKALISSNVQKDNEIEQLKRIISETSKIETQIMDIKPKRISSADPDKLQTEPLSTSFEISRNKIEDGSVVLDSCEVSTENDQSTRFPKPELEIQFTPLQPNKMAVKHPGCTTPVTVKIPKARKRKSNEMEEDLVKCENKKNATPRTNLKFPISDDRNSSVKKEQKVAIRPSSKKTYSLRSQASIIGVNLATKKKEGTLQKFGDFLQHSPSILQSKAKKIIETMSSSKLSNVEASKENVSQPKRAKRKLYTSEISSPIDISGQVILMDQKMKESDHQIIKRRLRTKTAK
# UniProt P02788, residues 20-710: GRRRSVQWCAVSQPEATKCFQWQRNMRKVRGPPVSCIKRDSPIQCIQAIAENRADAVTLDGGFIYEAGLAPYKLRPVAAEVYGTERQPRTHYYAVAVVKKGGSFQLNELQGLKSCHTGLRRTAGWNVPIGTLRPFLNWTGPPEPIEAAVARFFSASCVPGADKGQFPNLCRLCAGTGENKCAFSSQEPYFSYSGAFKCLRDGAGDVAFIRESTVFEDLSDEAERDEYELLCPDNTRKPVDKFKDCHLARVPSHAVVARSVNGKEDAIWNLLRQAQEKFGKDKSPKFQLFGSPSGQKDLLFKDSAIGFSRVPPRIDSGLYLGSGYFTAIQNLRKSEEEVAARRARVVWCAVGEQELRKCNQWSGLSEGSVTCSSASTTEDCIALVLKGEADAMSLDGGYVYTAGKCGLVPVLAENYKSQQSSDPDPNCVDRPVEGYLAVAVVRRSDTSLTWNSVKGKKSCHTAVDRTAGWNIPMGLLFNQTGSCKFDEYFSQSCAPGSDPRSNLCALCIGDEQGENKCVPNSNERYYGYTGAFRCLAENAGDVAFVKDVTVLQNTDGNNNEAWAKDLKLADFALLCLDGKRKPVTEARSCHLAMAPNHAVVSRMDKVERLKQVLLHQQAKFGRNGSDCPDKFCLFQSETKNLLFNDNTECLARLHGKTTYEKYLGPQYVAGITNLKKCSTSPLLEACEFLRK
# UniProt P30405, residues 30-207: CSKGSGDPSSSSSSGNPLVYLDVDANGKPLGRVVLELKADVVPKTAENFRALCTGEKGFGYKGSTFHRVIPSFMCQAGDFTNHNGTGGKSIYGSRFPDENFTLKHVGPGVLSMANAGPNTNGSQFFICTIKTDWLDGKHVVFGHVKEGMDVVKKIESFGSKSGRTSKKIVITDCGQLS
# UniProt P62333: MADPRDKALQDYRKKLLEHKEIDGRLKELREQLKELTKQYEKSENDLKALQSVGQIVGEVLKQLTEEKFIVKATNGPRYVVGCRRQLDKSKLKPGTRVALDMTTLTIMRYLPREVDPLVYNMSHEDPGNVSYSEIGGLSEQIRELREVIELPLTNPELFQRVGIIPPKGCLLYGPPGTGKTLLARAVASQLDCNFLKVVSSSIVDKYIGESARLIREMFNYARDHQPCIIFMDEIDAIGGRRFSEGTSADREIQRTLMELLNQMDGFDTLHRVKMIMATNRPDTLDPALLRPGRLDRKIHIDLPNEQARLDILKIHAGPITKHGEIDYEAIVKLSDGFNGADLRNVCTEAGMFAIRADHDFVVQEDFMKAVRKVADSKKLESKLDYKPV
# UniProt Q5VTR2: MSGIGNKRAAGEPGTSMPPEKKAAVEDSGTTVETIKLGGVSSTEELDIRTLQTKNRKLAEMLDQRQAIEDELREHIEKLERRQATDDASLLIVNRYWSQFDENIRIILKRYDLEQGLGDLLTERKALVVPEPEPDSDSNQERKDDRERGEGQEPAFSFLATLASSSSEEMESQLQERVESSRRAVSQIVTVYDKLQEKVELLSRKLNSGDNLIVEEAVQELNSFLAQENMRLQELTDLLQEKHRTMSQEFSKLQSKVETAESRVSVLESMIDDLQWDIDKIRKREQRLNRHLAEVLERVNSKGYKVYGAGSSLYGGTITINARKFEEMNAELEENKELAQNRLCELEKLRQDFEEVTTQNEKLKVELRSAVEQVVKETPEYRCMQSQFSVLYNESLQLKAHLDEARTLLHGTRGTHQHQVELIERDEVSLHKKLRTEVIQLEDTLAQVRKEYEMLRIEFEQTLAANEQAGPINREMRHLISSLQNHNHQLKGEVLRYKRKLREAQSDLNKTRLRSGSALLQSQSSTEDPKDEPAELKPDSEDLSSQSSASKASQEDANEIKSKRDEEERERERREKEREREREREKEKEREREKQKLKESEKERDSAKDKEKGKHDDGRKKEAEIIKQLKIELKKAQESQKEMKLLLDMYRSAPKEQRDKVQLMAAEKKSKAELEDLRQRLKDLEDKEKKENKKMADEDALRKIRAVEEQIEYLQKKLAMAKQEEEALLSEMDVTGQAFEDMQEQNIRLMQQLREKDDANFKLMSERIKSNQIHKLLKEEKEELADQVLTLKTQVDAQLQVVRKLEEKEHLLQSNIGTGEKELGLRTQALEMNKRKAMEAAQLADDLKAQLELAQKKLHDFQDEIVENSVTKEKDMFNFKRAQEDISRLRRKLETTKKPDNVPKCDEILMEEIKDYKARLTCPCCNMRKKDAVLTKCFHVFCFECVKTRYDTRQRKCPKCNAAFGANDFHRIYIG
# UniProt P02647, residues 19-267: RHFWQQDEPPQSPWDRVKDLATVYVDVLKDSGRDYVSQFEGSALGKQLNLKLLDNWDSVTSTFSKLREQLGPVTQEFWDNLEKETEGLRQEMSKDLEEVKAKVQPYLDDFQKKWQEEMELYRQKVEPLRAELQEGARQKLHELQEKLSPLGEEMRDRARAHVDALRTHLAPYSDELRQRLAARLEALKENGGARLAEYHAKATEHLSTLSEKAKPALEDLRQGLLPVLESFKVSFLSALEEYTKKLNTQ
# UniProt P54105: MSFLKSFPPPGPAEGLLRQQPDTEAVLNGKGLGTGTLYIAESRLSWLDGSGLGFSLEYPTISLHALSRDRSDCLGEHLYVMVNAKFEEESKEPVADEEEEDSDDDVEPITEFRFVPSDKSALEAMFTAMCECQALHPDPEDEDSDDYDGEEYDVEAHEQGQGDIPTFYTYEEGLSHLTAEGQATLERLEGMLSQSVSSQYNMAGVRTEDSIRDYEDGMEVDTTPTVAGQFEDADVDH
# UniProt Q9UHY7: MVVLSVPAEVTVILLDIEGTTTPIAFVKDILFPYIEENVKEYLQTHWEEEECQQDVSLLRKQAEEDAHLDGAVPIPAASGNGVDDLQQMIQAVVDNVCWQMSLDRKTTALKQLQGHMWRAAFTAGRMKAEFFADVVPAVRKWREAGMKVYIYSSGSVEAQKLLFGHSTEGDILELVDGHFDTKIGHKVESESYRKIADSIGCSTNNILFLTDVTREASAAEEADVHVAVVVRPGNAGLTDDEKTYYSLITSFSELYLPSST
# UniProt P30533, residues 35-357: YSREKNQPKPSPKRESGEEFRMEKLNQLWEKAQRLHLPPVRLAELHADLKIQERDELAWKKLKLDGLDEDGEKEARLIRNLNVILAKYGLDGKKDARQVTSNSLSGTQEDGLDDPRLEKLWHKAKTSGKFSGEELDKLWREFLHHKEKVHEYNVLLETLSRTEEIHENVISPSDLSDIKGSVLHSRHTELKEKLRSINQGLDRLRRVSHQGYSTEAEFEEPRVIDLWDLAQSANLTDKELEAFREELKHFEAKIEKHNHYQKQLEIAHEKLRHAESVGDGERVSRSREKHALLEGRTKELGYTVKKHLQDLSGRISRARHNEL
# UniProt P28062: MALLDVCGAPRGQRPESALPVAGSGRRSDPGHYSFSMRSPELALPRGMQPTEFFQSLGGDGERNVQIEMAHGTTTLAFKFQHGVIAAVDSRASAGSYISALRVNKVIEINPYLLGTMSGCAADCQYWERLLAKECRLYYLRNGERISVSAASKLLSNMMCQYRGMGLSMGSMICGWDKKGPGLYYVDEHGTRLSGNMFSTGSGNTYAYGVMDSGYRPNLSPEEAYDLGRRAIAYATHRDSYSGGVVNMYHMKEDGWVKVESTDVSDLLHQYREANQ
# T1: mesoheme–rabbit hemopexin (1:1 heme–HPX complex) (rabbit) (UniProt P20058)
# T1 sequence: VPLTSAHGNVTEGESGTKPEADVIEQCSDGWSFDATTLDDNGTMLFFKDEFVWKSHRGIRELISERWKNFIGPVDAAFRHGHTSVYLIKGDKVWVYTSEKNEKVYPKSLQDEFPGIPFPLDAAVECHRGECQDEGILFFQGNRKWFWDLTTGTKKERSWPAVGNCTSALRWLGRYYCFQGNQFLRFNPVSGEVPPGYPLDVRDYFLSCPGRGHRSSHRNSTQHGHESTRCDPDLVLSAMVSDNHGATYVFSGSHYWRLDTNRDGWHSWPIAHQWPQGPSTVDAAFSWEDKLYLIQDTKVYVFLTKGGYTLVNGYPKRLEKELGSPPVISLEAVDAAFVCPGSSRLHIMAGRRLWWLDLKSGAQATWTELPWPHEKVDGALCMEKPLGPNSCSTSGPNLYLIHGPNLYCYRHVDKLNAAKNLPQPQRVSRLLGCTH
# B1: Hemopexin (human), found in HepG2 isolates (protein, UniProt P02790 24-462)
# chain: TPLPPTSAHGNVAEGETKPDPDVTERCSDGWSFDATTLDDNGTMLFFKGEFVWKSHKWDRELISERWKNFPSPVDAAFRQGHNSVFLIKGDKVWVYPPEKKEKGYPKLLQDEFPGIPSPLDAAVECHRGECQAEGVLFFQGDREWFWDLATGTMKERSWPAVGNCSSALRWLGRYYCFQGNQFLRFDPVRGEVPPRYPRDVRDYFMPCPGRGHGHRNGTGHGNSTHHGPEYMRCSPHLVLSALTSDNHGATYAFSGTHYWRLDTSRDGWHSWPIAHQWPQGPSAVDAAFSWEEKLYLVQGTQVYVFLTKGGYTLVSGYPKRLEKEVGTPHGIILDSVDAAFICPGSSRLHIMAGRRLWWLDLKSGAQATWTELPWPHEKVDGALCMEKSLGPNSCSANGPGLYLIHGPNLYCYSDVEKLNAAKALPQPQNVTSLLGCTH
# B2: Gamma glutamyl hydrolase (enzyme, UniProt Q92820 25-318)
# chain: RPHGDTAKKPIIGILMQKCRNKVMKNYGRYYIAASYVKYLESAGARVVPVRLDLTEKDYEILFKSINGILFPGGSVDLRRSDYAKVAKIFYNLSIQSFDDGDYFPVWGTCLGFEELSLLISGECLLTATDTVDVAMPLNFTGGQLHSRMFQNFPTELLLSLAVEPLTANFHKWSLSVKNFTMNEKLKKFFNVLTTNTDGKIEFISTMEGYKYPVYGVQWHPEKAPYEWKNLDGISHAPNAVKTAFYLAEFFVNEARKNNHHFKSESEEEKALIYQFSPIYTGNISSFQQCYIFD
# B3: Basic leucine zipper and W2 domain containing protein 2 (protein, UniProt Q9Y6E2 1-419)
# chain: MNKHQKPVLTGQRFKTRKRDEKEKFEPTVFRDTLVQGLNEAGDDLEAVAKFLDSTGSRLDYRRYADTLFDILVAGSMLAPGGTRIDDGDKTKMTNHCVFSANEDHETIRNYAQVFNKLIRRYKYLEKAFEDEMKKLLLFLKAFSETEQTKLAMLSGILLGNGTLPATILTSLFTDSLVKEGIAASFAVKLFKAWMAEKDANSVTSSLRKANLDKRLLELFPVNRQSVDHFAKYFTDAGLKELSDFLRVQQSLGTRKELQKELQERLSQECPIKEVVLYVKEEMKRNDLPETAVIGLLWTCIMNAVEWNKKEELVAEQALKHLKQYAPLLAVFSSQGQSELILLQKVQEYCYDNIHFMKAFQKIVVLFYKADVLSEEAILKWYKEAHVAKGKSVFLDQMKKFVEWLQNAEEESESEGEEN
# B4: Isocitrate dehydrogenase (NAD+) subunit alpha (enzyme, UniProt P50213 28-366)
# chain: TGGVQTVTLIPGDGIGPEISAAVMKIFDAAKAPIQWEERNVTAIQGPGGKWMIPSEAKESMDKNKMGLKGPLKTPIAAGHPSMNLLLRKTFDLYANVRPCVSIEGYKTPYTDVNIVTIRENTEGEYSGIEHVIVDGVVQSIKLITEGASKRIAEFAFEYARNNHRSNVTAVHKANIMRMSDGLFLQKCREVAESCKDIKFNEMYLDTVCLNMVQDPSQFDVLVMPNLYGDILSDLCAGLIGGLGVTPSGNIGANGVAIFESVHGTAPDIAGKDMANPTALLLSAVMMLRHMGLFDHAARIEAACFATIKDGKSLTKDLGGNAKCSDFTEEICRRVKDLD
# B5: Peptide deformylase (enzyme, UniProt Q9HBH1 40-243)
# chain: EGPALRRSYWRHLRRLVLGPPEPPFSHVCQVGDPVLRGVAAPVERAQLGGPELQRLTQRLVQVMRRRRCVGLSAPQLGVPRQVLALELPEALCRECPPRQRALRQMEPFPLRVFVNPSLRVLDSRLVTFPEGCESVAGFLACVPRFQAVQISGLDPNGEQVVWQASGWAARIIQHEMDHLQGCLFIDKMDSRTFTNVYWMKVND
# B6: Nuclear FMR1 interacting protein 2 (protein, UniProt Q7Z417 1-695)
# chain: MEEKPGQPQPQHHHSHHHPHHHPQQQQQQPHHHHHYYFYNHSHNHHHHHHHQQPHQYLQHGAEGSPKAQPKPLKHEQKHTLQQHQETPKKKTGYGELNGNAGEREISLKNLSSDEATNPISRVLNGNQQVVDTSLKQTVKANTFGKAGIKTKNFIQKNSMDKKNGKSYENKSGENQSVDKSDTIPIPNGVVTNNSGYITNGYMGKGADNDGSGSESGYTTPKKRKARRNSAKGCENLNIVQDKIMQQETSVPTLKQGLETFKPDYSEQKGNRVDGSKPIWKYETGPGGTSRGKPAVGDMLRKSSDSKPGVSSKKFDDRPKGKHASAVASKEDSWTLFKPPPVFPVDNSSAKIVPKISYASKVKENLNKTIQNSSVSPTSSSSSSSSTGETQTQSSSRLSQVPMSALKSVTSANFSNGPVLAGTDGNVYPPGGQPLLTTAANTLTPISSGTDSVLQDMSLTSAAVEQIKTSLFIYPSNMQTMLLSTAQVDLPSQTDQQNLGDIFQNQWGLSFINEPSAGPETVTGKSSEHKVMEVTFQGEYPATLVSQGAEIIPSGTEHPVFPKAYELEKRTSPQVLGSILKSGTTSESGALSLEPSHIGDLQKADTSSQGALVFLSKDYEIESQNPLASPTNTLLGSAKEQRYQRGLERNDSWGSFDLRAAIVYHTKEMESIWNLQKQDPKRIITYNEAMDSPDQ
# B7: Alpha-1-antichymotrypsin (protein, UniProt P01011 24-423)
# chain: HPNSPLDEENLTQENQDRGTHVDLGLASANVDFAFSLYKQLVLKAPDKNVIFSPLSISTALAFLSLGAHNTTLTEILKGLKFNLTETSEAEIHQSFQHLLRTLNQSSDELQLSMGNAMFVKEQLSLLDRFTEDAKRLYGSEAFATDFQDSAAAKKLINDYVKNGTRGKITDLIKDLDSQTMMVLVNYIFFKAKWEMPFDPQDTHQSRFYLSKKKWVMVPMMSLHHLTIPYFRDEELSCTVVELKYTGNASALFILPDQDKMEEVEAMLLPETLKRWRDSLEFREIGELYLPKFSISRDYNLNDILLQLGIEEAFTSKADLSGITGARNLAVSQVVHKAVLDVFEEGTEASAATAVKITLLSALVETRTIVRFNRPFLMIIVPTDTQNIFFMSKVTNPKQA
# B8: Glycosylphosphatidylinositol specific phospholipase D1 (enzyme, UniProt P80108 24-840)
# chain: CGLSTHVEIGHRALEFLQLHNGRVNYRELLLEHQDAYQAGIVFPDCFYPSICKGGKFHDVSESTHWTPFLNASVHYIRENYPLPWEKDTEKLVAFLFGITSHMAADVSWHSLGLEQGFLRTMGAIDFHGSYSEAHSAGDFGGDVLSQFEFNFNYLARRWYVPVKDLLGIYEKLYGRKVITENVIVDCSHIQFLEMYGEMLAVSKLYPTYSTKSPFLVEQFQEYFLGGLDDMAFWSTNIYHLTSFMLENGTSDCNLPENPLFIACGGQQNHTQGSKMQKNDFHRNLTTSLTESVDRNINYTERGVFFSVNSWTPDSMSFIYKALERNIRTMFIGGSQLSQKHVSSPLASYFLSFPYARLGWAMTSADLNQDGHGDLVVGAPGYSRPGHIHIGRVYLIYGNDLGLPPVDLDLDKEAHRILEGFQPSGRFGSALAVLDFNVDGVPDLAVGAPSVGSEQLTYKGAVYVYFGSKQGGMSSSPNITISCQDIYCNLGWTLLAADVNGDSEPDLVIGSPFAPGGGKQKGIVAAFYSGPSLSDKEKLNVEAANWTVRGEEDFSWFGYSLHGVTVDNRTLLLVGSPTWKNASRLGHLLHIRDEKKSLGRVYGYFPPNGQSWFTISGDKAMGKLGTSLSSGHVLMNGTLKQVLLVGAPTYDDVSKVAFLTVTLHQGGATRMYALTSDAQPLLLSTFSGDRRFSRFGGVLHLSDLDDDGLDEIIMAAPLRIADVTSGLIGGEDGRVYVYNGKETTLGDMTGKCKSWITPCPEEKAQYVLISPEASSRFGSSLITVRSKAKNQVVIAAGRSSLGARLSGALHVYSLGSD
# Molecular target: holo-human transferrin (human) (UniProt P02787)
# Test: affinity purification with mass spectrometry; heme–HPX or holo-human Tf Affi-Gel 15 against ovalbumin Affi-Gel 15; HepG2 whole-cell extracts (0.5% Triton X-100, HEPES pH 7.4, 150 mM NaCl); 2-fold or greater over the negative control counted as specifically bound; only the target purified
row,Molecule,binding
1,COP9 signalosome complex subunit (from UniProt Q7L5N1 1-327),binds
2,Kinesin family member (from UniProt Q96Q89 1-1820),binds
3,Lactoferrin (from UniProt P02788 20-710),binds
4,Peptidyl-prolyl cis-trans isomerase F (from UniProt P30405 30-207) (enzyme),binds
5,Proteasome 26S subunit (from UniProt P62333 1-389),binds
6,Ring finger protein 20 (from UniProt Q5VTR2 1-975) (enzyme),binds
7,SWI/SNF-related BAF chromatin remodeling complex subunit C1 (from UniProt Q92922 1-1105),binds
8,B1,binds
9,B2,binds
10,B3,binds
11,B4,binds

# Molecular target: T1, mesoheme–rabbit hemopexin (1:1 heme–HPX complex) (rabbit)
# Test: as above
row,Molecule,binding
1,Apolipoprotein A-1 (from UniProt P02647 19-267),binds
2,Cathepsin H (human (endogenous in HepG2)) (enzyme),binds
3,Chloride nucleotide-sensitive channel 1A (from UniProt P54105 1-237),binds
4,Enolase-phosphatase I (from UniProt Q9UHY7 1-261) (enzyme),binds
5,"LRP1 receptor-associated protein (RAP), endogenous (from UniProt P30533 35-357)",binds
6,Proteasome subunit βtype-8 (from UniProt P28062),binds
7,B5,binds
8,B6,binds

# Molecular target: T1, mesoheme–rabbit hemopexin (1:1 heme–HPX complex) (rabbit)
# Test: affinity purification with mass spectrometry; proto-heme–human HPX, mesoheme–rabbit HPX or holo-human Tf Affi-Gel 15; detergent extracts of primary human hepatocytes; proteins found on underivatized, mouse IgG or ovalbumin resins filtered out; only the target purified
row,Molecule,binding
1,B7,binds
2,B8,binds

# No constants are given. Whether binding was seen depends on the method and setting. In cells and extracts the contact can be indirect. A yes stands for co-enrichment or nearness to the bait. Other partners may have been found.
